Test results as given in article PMC9500956, “In Vitro Characterization of the Physical Interactions between the Long Noncoding RNA TERRA and the Telomeric Proteins TRF1 and TRF2”.
Changes are numbered by the printed parent chain. For some of these results: A weaker result is weaker than the reference pair of the same experiment. For some of these results: Where a protein sequence is shown, tags need not be part of it. For some of these results: Construct, isoform or probe ends are uncertain for at least one entry. For some of these results: A negative result means that nothing was seen under these conditions.

Amino acid sequences for entries named in this document (tags omitted). Residues count along the entry.
UniProt Q15554, 43-86 R70A: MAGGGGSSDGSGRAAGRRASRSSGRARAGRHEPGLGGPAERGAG
UniProt Q15554, 43-86 R72A: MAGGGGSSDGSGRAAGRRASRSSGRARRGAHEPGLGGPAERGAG
UniProt Q15554, 43-86 R59A/R60A: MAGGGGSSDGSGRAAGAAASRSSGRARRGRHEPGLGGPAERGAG
UniProt Q15554, 43-86 R59A: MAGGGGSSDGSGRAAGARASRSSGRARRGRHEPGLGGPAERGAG
UniProt Q15554, 43-86 R60A: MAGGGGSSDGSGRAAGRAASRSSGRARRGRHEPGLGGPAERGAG
UniProt Q15554, 43-86 R69A/R70A: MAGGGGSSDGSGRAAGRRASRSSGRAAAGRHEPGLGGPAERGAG
UniProt Q15554, 43-86 R69A: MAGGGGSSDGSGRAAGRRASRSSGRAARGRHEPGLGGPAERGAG
UniProt Q15554, 43-86 R67A: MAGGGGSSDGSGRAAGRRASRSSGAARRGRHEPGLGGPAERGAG
UniProt Q15554, 43-86 R55A: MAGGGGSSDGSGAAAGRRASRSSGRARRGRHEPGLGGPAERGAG

Assays:
Assay in all cases: EMSA
[1] = biological target: T1, GST-B R21A R63A (human) (UniProt Q15554); settings: 80 nM protein, slight reduction; RNA EMSA: 50 mM HEPES pH 8, 1 mM DTT, 100 mM NaCl, 0.01% BSA, 2% glycerol, 50 ng/uL E. coli tRNA, 0.25 nM RNA, 20 min on ice then 10 min 25 C; recombinant protein; residues 43-86; protein details: N-terminal GST; label: 5'-32P
T1 sequence (looked up): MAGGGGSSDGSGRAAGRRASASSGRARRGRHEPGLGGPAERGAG

[2] = test system: GST-mAB (mouse); settings: E. coli tRNA; RNA EMSA: 50 mM HEPES pH 8, 1 mM DTT, 100 mM NaCl, 0.01% BSA, 2% glycerol, 50 ng/uL E. coli tRNA, 0.25 nM RNA, 20 min on ice then 10 min 25 C; recombinant protein; protein details: N-terminal GST; label: 5'-32P
[3] = test system: GST-AB (hAB) (human); settings: E. coli tRNA; RNA EMSA: 50 mM HEPES pH 8, 1 mM DTT, 100 mM NaCl, 0.01% BSA, 2% glycerol, 50 ng/uL E. coli tRNA, 0.25 nM RNA, 20 min on ice then 10 min 25 C; recombinant protein; protein details: N-terminal GST; label: 5'-32P
[4] = biological target: T2, GST-B R28A R70A (human) (UniProt Q15554); settings: 80 nM protein, slight reduction; RNA EMSA: 50 mM HEPES pH 8, 1 mM DTT, 100 mM NaCl, 0.01% BSA, 2% glycerol, 50 ng/uL E. coli tRNA, 0.25 nM RNA, 20 min on ice then 10 min 25 C; recombinant protein; residues 43-86; protein details: N-terminal GST; label: 5'-32P
T2 sequence (looked up): T1 sequence (looked up) with A21R, R28A

[5] = biological target: T3, GST-B R30A R72A (human) (UniProt Q15554); settings: 80 nM protein, slight reduction; RNA EMSA: 50 mM HEPES pH 8, 1 mM DTT, 100 mM NaCl, 0.01% BSA, 2% glycerol, 50 ng/uL E. coli tRNA, 0.25 nM RNA, 20 min on ice then 10 min 25 C; recombinant protein; residues 43-86; protein details: N-terminal GST; label: 5'-32P
T3 sequence (looked up): T1 sequence (looked up) with A21R, R30A

[6] = biological target: T4, GST-B R17/18A R59A,R60A (human) (UniProt Q15554); settings: 80 nM protein, slight reduction; RNA EMSA: 50 mM HEPES pH 8, 1 mM DTT, 100 mM NaCl, 0.01% BSA, 2% glycerol, 50 ng/uL E. coli tRNA, 0.25 nM RNA, 20 min on ice then 10 min 25 C; recombinant protein; residues 43-86; protein details: N-terminal GST; label: 5'-32P
T4 sequence (looked up): T1 sequence (looked up) with R17A, R18A, A21R

[7] = biological target: T5, GST-B R17A R59A (human) (UniProt Q15554); settings: 80 nM protein, slight reduction; RNA EMSA: 50 mM HEPES pH 8, 1 mM DTT, 100 mM NaCl, 0.01% BSA, 2% glycerol, 50 ng/uL E. coli tRNA, 0.25 nM RNA, 20 min on ice then 10 min 25 C; recombinant protein; residues 43-86; protein details: N-terminal GST; label: 5'-32P
T5 sequence (looked up): T1 sequence (looked up) with R17A, A21R

[8] = biological target: T6, GST-B R18A R60A (human) (UniProt Q15554); settings: 80 nM protein, slight reduction; RNA EMSA: 50 mM HEPES pH 8, 1 mM DTT, 100 mM NaCl, 0.01% BSA, 2% glycerol, 50 ng/uL E. coli tRNA, 0.25 nM RNA, 20 min on ice then 10 min 25 C; recombinant protein; residues 43-86; protein details: N-terminal GST; label: 5'-32P
T6 sequence (looked up): T1 sequence (looked up) with R18A, A21R

[9] = biological target: T7, GST-B R27/28A R69A,R70A (human) (UniProt Q15554); settings: 80 nM protein, slight reduction; RNA EMSA: 50 mM HEPES pH 8, 1 mM DTT, 100 mM NaCl, 0.01% BSA, 2% glycerol, 50 ng/uL E. coli tRNA, 0.25 nM RNA, 20 min on ice then 10 min 25 C; recombinant protein; residues 43-86; protein details: N-terminal GST; label: 5'-32P
T7 sequence (looked up): T1 sequence (looked up) with A21R, R27A, R28A

[10] = biological target: T8, GST-B R27A R69A (human) (UniProt Q15554); settings: 80 nM protein, slight reduction; RNA EMSA: 50 mM HEPES pH 8, 1 mM DTT, 100 mM NaCl, 0.01% BSA, 2% glycerol, 50 ng/uL E. coli tRNA, 0.25 nM RNA, 20 min on ice then 10 min 25 C; recombinant protein; residues 43-86; protein details: N-terminal GST; label: 5'-32P
T8 sequence (looked up): T1 sequence (looked up) with A21R, R27A

[11] = biological target: T9, GST-B R25A R67A (human) (UniProt Q15554); settings: 80 nM protein, slight reduction; RNA EMSA: 50 mM HEPES pH 8, 1 mM DTT, 100 mM NaCl, 0.01% BSA, 2% glycerol, 50 ng/uL E. coli tRNA, 0.25 nM RNA, 20 min on ice then 10 min 25 C; recombinant protein; residues 43-86; protein details: N-terminal GST; label: 5'-32P
T9 sequence (looked up): T1 sequence (looked up) with A21R, R25A

[12] = biological target: T10, GST-B R13A R55A (human) (UniProt Q15554); settings: 80 nM protein, slight reduction; RNA EMSA: 50 mM HEPES pH 8, 1 mM DTT, 100 mM NaCl, 0.01% BSA, 2% glycerol, 50 ng/uL E. coli tRNA, 0.25 nM RNA, 20 min on ice then 10 min 25 C; recombinant protein; residues 43-86; protein details: N-terminal GST; label: 5'-32P
T10 sequence (looked up): T1 sequence (looked up) with R13A, A21R

[13] = biological target: T11, GST-B R13-30K R55K,R59K,R60K,R63K,R67K,R69K,R70K,R72K (human) (UniProt Q15554); settings: some binding from 80 nM; RNA EMSA: 50 mM HEPES pH 8, 1 mM DTT, 100 mM NaCl, 0.01% BSA, 2% glycerol, 50 ng/uL E. coli tRNA, 0.25 nM RNA, 20 min on ice then 10 min 25 C; recombinant protein; residues 43-86; protein details: N-terminal GST; label: 5'-32P
T11 sequence (looked up): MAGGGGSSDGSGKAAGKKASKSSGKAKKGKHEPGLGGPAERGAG

[14] = test system: GST-A50-66B (human); settings: E. coli tRNA; RNA EMSA: 50 mM HEPES pH 8, 1 mM DTT, 100 mM NaCl, 0.01% BSA, 2% glycerol, 50 ng/uL E. coli tRNA, 0.25 nM RNA, 20 min on ice then 10 min 25 C; recombinant protein; protein details: N-terminal GST; label: 5'-32P
[15] = test system: GST-AP2EDB (human); settings: almost no binding; RNA EMSA: 50 mM HEPES pH 8, 1 mM DTT, 100 mM NaCl, 0.01% BSA, 2% glycerol, 50 ng/uL E. coli tRNA, 0.25 nM RNA, 20 min on ice then 10 min …; recombinant protein; protein details: N-terminal GST; label: 5'-32P

| Sequence | binding result [1] | binding result [2] | binding result [3] | binding result [4] | binding result [5] | binding result [6] | binding result [7] | binding result [8] | binding result [9] | binding result [10] | binding result [11] | binding result [12] | binding result [13] | binding result [14] | binding result [15] |
| --- | --- | --- | --- | --- | --- | --- | --- | --- | --- | --- | --- | --- | --- | --- | --- |
| UUAGGGUUAGGGUUAGGGUUAGGGUUAGGG [TERRA (UUAGGG)5] | binds more weakly | binds | no binding | binds more weakly | binds more weakly | binds more weakly | binds more weakly | binds more weakly | binds more weakly | binds more weakly | binds more weakly | binds more weakly | binds more weakly |  |  |
| UUAGGGUUAGGGUUAGGGUUAGGGUUAGGGUUAGGGUUAGGGUUAGGGUUAGGGUUAGGGUUAGGGUUAGGG [TERRA (UUAGGG)12] |  |  | no binding |  |  |  |  |  |  |  |  |  |  | no binding | binds more weakly |
